The source of these data is PubChem BioAssay AID2685 (National Center for Advancing Translational Sciences (NCATS), 2010).

The structures appear in SMILES notation. Some of the results follow. The main result of the screen is listed elsewhere. These columns were measured beside it and carry no call. Most of these compounds were active or inconclusive in the main read-out, so they are no random draw. Potencies come from curve fits of mixed quality, noted in brackets.

A short description of the assay: qHTS Assay for Lipid Storage Modulators in Drosophila S3 Cells.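 For cell number change: cells counted by Cell Tracker Red CMTPX staining in the red channel.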 To be noted: BODIPY lipid droplet fluorescence, 18-24 h; for cell number change: measured here: cell count max response, cells fed with added oleic acid. Put shortly:
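Drosophila S3 cells loaded with oleic acid (400 uM, as added) and compounds at several concentrations; lipid droplets imaged by 488-nm laser-scanning cytometry, 500–530 nm intensity and object ratio to cell channel. Percent activity normalized to 20 uM Triacsin C.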
Background: qHTS replaces the single test concentration by a dilution series.

[1] abbreviates: measured here: lipid fluorescence (Fed channel) AC50, cells fed with added oleic acid.
Where [2] appears, read: measured here: cell number channel AC50, cells fed with added oleic acid.

For the compound `COc1ccc(CCNC(=O)C2CCCN2C(=O)Nc2ccc(F)cc2)cc1OC` (centres undefined), the cell number change was determined as 14.8%. Also, the concentration at half-maximal activity (AC50) under setting [1] was 6.51 µM [rising, single point].
On to `CCc1ccc(NSc2ccccc2[N+](=O)[O-])cc1`, for which the cell number change is -142%. Also, under setting [2], the AC50 is 10.3 µM [falling, partial curve]. In addition, under setting [1], the AC50 was 29.1 µM [falling, partial curve].
For the compound `COc1ccc(Cl)cc1NC(=O)CN(C)C(=O)CCCNC(=O)c1ccc(Cl)cc1`, the cell number change turned out to be 41.1%. In addition, under setting [2], the AC50 is 10.3 µM [rising, single point].
For `Cc1cccn2c(=O)c3cc(C(=O)NC(C)C)c(=N)n(Cc4ccncc4)c3nc12`, the AC50 under setting [2] was 0.58 µM [rising, single point].
On to `COc1ccc(C(=O)NC(=S)Nc2ccc(S(=O)(=O)Nc3cc(OC)ncn3)cc2)cc1`, for which the cell number change is 9.4%. Also, under setting [1], the concentration at half-maximal activity (AC50) is 0.731 µM [rising, partial curve, poor fit].
Take `Brc1ccccc1C1=Nn2c(nnc2-c2ccco2)SC1`: the cell number change came to 5.55%. Further, the AC50 under setting [1] is 0.00517 µM [falling, full curve, poor fit].
As to `CCN(C#N)c1nc(NC(C)C)nc(NC(C)(C)C)n1`, the cell number change is -12.9%. Besides, the AC50 under setting [2] was 0.13 µM [falling, full curve, poor fit]. For the same compound, the half-maximal activity concentration (AC50) under setting [1] was 0.651 µM [falling, full curve, poor fit].
With `Cc1ccc([C@@H]2[C@@H]3C(=O)N(C)C(=O)[C@@H]3[C@@H]3C(=O)Nc4ccccc4C(=O)N23)cc1`, the cell number change is -8.09%. The AC50 under setting [1] is 0.00461 µM [falling, full curve, poor fit].
Take `CCC(c1nnnn1Cc1ccc2c(c1)OCO2)N1CCN(c2ccc(F)cc2)CC1` (centres undefined): the cell number change was found to be 21.7%. In addition, the AC50 under setting [2] is 2.59 µM [rising, full curve, poor fit].
Consider `CCN(CC)C(=O)c1cc([N+](=O)[O-])cc2c1-c1ccc([N+](=O)[O-])cc1C2=C(C#N)C#N`, for which the cell number change is -13.1%.
On to `O=C(NC1CC1)C1CCN(C2CCN(Cc3ccccc3C(F)(F)F)CC2)CC1`, for which the cell number change was -8.25%. Also, under setting [2], the AC50 is 0.0731 µM [rising, full curve, poor fit].
For the compound `Cc1ccc(S(=O)(=O)N2[C@@H](c3ccccc3F)C(C(=O)O)=CC[C@H]2c2ccc3c(c2)OCO3)cc1`, the cell number change turned out to be 35.5%. Further, the AC50 under setting [2] is 6.51 µM [falling, single point].
In the case of `CSc1ncccc1C(=O)OCC(=O)NC1CC1`, the cell number change was -32.7%. For the same compound, the AC50 under setting [2] was 4.61 µM [falling, full curve, poor fit]. For the same compound, the concentration at half-maximal activity (AC50) under setting [1] was 6.51 µM [falling, single point].
With `O=C(NNC(=O)C1CCCCC1)c1ccc(Br)cc1`, the cell number change is -32.4%. For the same compound, under setting [2], the AC50 was 20.6 µM [falling, single point].
Turning to `CN(C)c1cccc(C(=O)OCC(=O)N(C)c2ccccc2)c1`, the cell number change was found to be 10.4%. Under setting [1], the concentration at half-maximal activity (AC50) was 29.1 µM [falling, single point].
Consider `CC1=C(C(=O)N2CCCC(C(=O)c3cccc4ccccc34)C2)OCCO1` (centres undefined), for which the cell number change was -42.9%. Under setting [2], the half-maximal activity concentration (AC50) was 32.6 µM [falling, partial curve].
For `COCCNc1cc(C)nc2c3c(C)cc(C)nc3nn12`, the cell number change amounted to 5.42%. Further, the AC50 under setting [2] was 0.651 µM [rising, full curve, poor fit].
Take `CCOc1cc(S(=O)(=O)N2CCCC2)ccc1Cl`: the cell number change is -8.85%. Also, the half-maximal activity concentration (AC50) under setting [2] was 0.366 µM [falling, full curve, poor fit].
With `O=C(NCC(=O)N(CC1CCCO1)C1(C(=O)NC2CCCCC2)CCCCC1)c1ccccc1` (centres undefined), the cell number change turned out to be 27.1%. Also, the AC50 under setting [2] is 0.146 µM [rising, full curve]. The AC50 under setting [1] is 0.517 µM [rising, full curve].
For `COc1ccc(C(=O)NCC(=O)NCC(=O)OCC(=O)C(C)(C)C)cc1`, the cell number change was -0.303%. Under setting [1], the concentration at half-maximal activity (AC50) is 3.26 µM [rising, single point].
Regarding `Cc1ccc(S(=O)(=O)N2CCCC(C(=O)NCC3COCCO3)C2)cc1` (centres undefined), the cell number change came out at 7.79%. In addition, the AC50 under setting [1] is 4.11 µM [rising, full curve].
In the case of `Cc1cccc(CCNC(=O)C2CCCN(c3ncnc4c3nc3n4CCCCC3)C2)c1` (centres undefined), the cell number change amounted to 13.4%. The concentration at half-maximal activity (AC50) under setting [1] was 6.51 µM [falling, single point].
Turning to `COc1ccc(N(C(=O)c2snc(C(N)=O)c2N)C(CC(C)C)C(=O)NCC2CCCO2)cc1` (centres undefined), the cell number change is -32.5%. In addition, the concentration at half-maximal activity (AC50) under setting [2] is 0.13 µM [falling, full curve, poor fit].
As for `CCCNc1nc2c(c(=O)[nH]c(=O)n2C)n1CCCc1ccccc1`, the cell number change was -7.22%. In addition, the half-maximal activity concentration (AC50) under setting [1] was 16.4 µM [rising, single point].
Regarding `COc1ccc(NC(=O)Nc2cc(C)ccc2F)cc1`, the cell number change was -2.03%. In addition, the AC50 under setting [1] is 13 µM [rising, partial curve].
Regarding `Cc1ccc(C)c(NC(=S)N2C3CCCC2CC(NC(=O)C2CC2)C3)c1` (centres undefined), the cell number change worked out at 4.78%.
`O=C(Nc1cc(Cl)ccc1Cl)Nn1cnnc1`: the cell number change amounted to 29.2%. The concentration at half-maximal activity (AC50) under setting [2] is 3.66 µM [rising, single point].
With `CCCNC(=O)Cc1c(C)n(C(=O)c2ccc(Cl)cc2)c2ccc(OC)cc12`, the cell number change is -34.3%. Moreover, the AC50 under setting [2] is 7.31 µM [falling, partial curve]. Further, the half-maximal activity concentration (AC50) under setting [1] is 2.59 µM [falling, partial curve, poor fit].
For `COc1ccc(NS(=O)(=O)c2cc(NC(=O)CNC(=O)c3cccc(OC)c3)ccc2C)cc1`, the cell number change is -12.7%.
With `COCCCNC(=O)CNC(=O)c1cn(-c2ccccc2OC)c(=O)c2ccccc12`, the cell number change was -16.6%.
Consider `Cc1ccnc(NC(=O)CCC(=O)N(CC(=O)NC(C)(C)C)c2ccc3c(c2)OCO3)c1`, for which the cell number change was -24.8%. Under setting [1], the AC50 was 6.51 µM [rising, single point].
Consider `Cc1[nH]n(C(N)=S)c(=O)c1N=Nc1cccc(C(F)(F)F)c1`, for which the concentration at half-maximal activity (AC50) is 0.731 µM [falling, single point] under setting [2] and 6.51 µM [falling, single point] under setting [1].
For the compound `CCC(=O)NCC(c1cccs1)N1CCOCC1` (centres undefined), the cell number change was -23.6%. The concentration at half-maximal activity (AC50) under setting [1] was 0.00651 µM [falling, full curve, poor fit].
As for `CCCn1c(N2CCN(CC(=O)c3c[nH]c4ccccc34)CC2)nc2c1c(=O)[nH]c(=O)n2C`, the cell number change was -5.13%. The half-maximal activity concentration (AC50) under setting [1] is 0.291 µM [rising, single point].
Take `O=[N+]([O-])c1cccc(CN2CCN(c3ncccn3)CC2)c1`: the cell number change worked out at 23.2%. Further, the concentration at half-maximal activity (AC50) under setting [1] was 29.1 µM [rising, single point].
On to `N#Cc1c(N2C(=O)c3ccc(C(=O)O)cc3C2=O)sc2c1CCCC2`, for which the cell number change was found to be 46.6%. In addition, the concentration at half-maximal activity (AC50) under setting [2] was 25.9 µM [rising, single point]. Besides, the AC50 under setting [1] was 29.1 µM [rising, single point].
On to `O=C(NCc1ccco1)C1CCN(Cc2ccc(F)cc2)CC1`, for which the cell number change is 2.02%. In addition, the concentration at half-maximal activity (AC50) under setting [1] was 29.1 µM [falling, partial curve].
With `CC(=O)c1cccc(NC2c3ccccc3C(=O)N2Cc2ccc3c(c2)OCO3)c1` (centres undefined), the cell number change was found to be 6.46%. Further, the AC50 under setting [1] was 3.26 µM [rising, partial curve].
Consider `Cn1c(SCC(N)=O)nnc1-c1ccc(S(=O)(=O)N2CCCC2)cc1`, for which the cell number change is -6.41%.
With `O=C(COC(=O)c1ccc(F)cc1Cl)NC1CCS(=O)(=O)C1` (centres undefined), the cell number change was -6.09%. Under setting [1], the concentration at half-maximal activity (AC50) is 29.1 µM [rising, single point].
As for `Cc1onc(-c2ccccc2)c1C(=O)N(CC(C)C)c1c(N)n(CC(C)C)c(=O)[nH]c1=O`, the cell number change stood at 17.9%. In addition, the concentration at half-maximal activity (AC50) under setting [1] is 0.0231 µM [rising, full curve, poor fit].
Regarding `O=Cc1sc(N2CCOCC2)nc1-c1ccccc1`, the cell number change was -11.6%.
For the compound `O=C1N/C(=N\N=C\c2cccs2)SC1Cc1cccc(Cl)c1` (centres undefined), the cell number change was -43.6%. The half-maximal activity concentration (AC50) under setting [2] is 18.4 µM [falling, partial curve, poor fit]. Under setting [1], the AC50 is 18.4 µM [falling, partial curve, poor fit].
As for `Cc1cc(C)c(C#N)c(SCC(=O)C2CC2)n1`, the AC50 is 0.092 µM [rising, full curve, poor fit] under setting [2] and 0.103 µM [rising, full curve, poor fit] under setting [1].
Turning to `O=C(c1cn(-c2ccccc2)nc1-c1cccnc1)N1CCCCC1`, the cell number change amounted to 0.2%. The AC50 under setting [1] was 2.59 µM [rising, single point].
As for `CCOC(=O)C(=O)Nc1ccc2c(c1)OCO2`, the cell number change stood at 2.09%. Under setting [2], the concentration at half-maximal activity (AC50) was 0.103 µM [rising, full curve, poor fit]. Moreover, the AC50 under setting [1] was 3.66 µM [rising, single point].
On to `CCC(OC(=O)CN1C(=O)C(=O)c2ccccc21)C(=O)Nc1ccccc1OC` (centres undefined), for which the cell number change stood at 16.9%.
Turning to `Cc1cccc(C2CC(c3ccc(Br)cc3)Nc3nc(N)nn32)c1` (centres undefined), the cell number change turned out to be 0.922%. In addition, under setting [1], the AC50 is 0.82 µM [rising, full curve, poor fit].
Consider `COc1ccc(-c2csc(NNC3=NCCCCC3)n2)cc1`, for which the cell number change was -57.6%. Further, under setting [2], the AC50 is 32.6 µM [falling, partial curve, poor fit]. The half-maximal activity concentration (AC50) under setting [1] is 29.1 µM [falling, single point].
On to `CC(=O)Nc1ccc(NC(=O)COC(=O)CCc2nc3ccccc3s2)cc1`, for which the cell number change was -2.32%.
Turning to `O=C(CSCc1ccccc1Cl)N1CCN(c2ccccn2)CC1`, the half-maximal activity concentration (AC50) under setting [2] is 0.103 µM [rising, full curve, poor fit].
Consider `CCC1(c2ccccc2)NC(=O)N(CC(=O)Nc2cc(S(=O)(=O)N3CCOCC3)ccc2OC(C)C)C1=O` (centres undefined), for which the cell number change came to 25%. Moreover, under setting [2], the AC50 is 0.058 µM [rising, full curve, poor fit].
Regarding `Cc1ccc(OCC(O)Cn2c(=N)n(CCN3CCOCC3)c3ccccc32)cc1` (centres undefined), the cell number change is -7.37%. Under setting [1], the half-maximal activity concentration (AC50) was 29.1 µM [rising, single point].
Regarding `Cc1ccc2c(c1)C1CC(C)(O2)N(c2cccc(C(=O)N3CCN(c4ccccn4)CC3)c2)C(=O)N1` (centres undefined), the cell number change was -24.1%. Further, under setting [1], the AC50 is 29.1 µM [falling, single point].
`O=C(NCC1CCCO1)c1ccc(S(=O)(=O)N2CCCCC2)cc1` (centres undefined): the cell number change was found to be 4.14%. Moreover, under setting [1], the AC50 was 3.26 µM [falling, full curve].
As for `O=C(COc1cc(Cl)c(Cl)cc1Cl)NCCN1CCOCC1`, the cell number change was 27%. In addition, the AC50 under setting [1] was 0.651 µM [falling, single point].
On to `Cn1c2ccccc2c2cnn(CC(=O)Nc3cccc(F)c3)c(=O)c21`, for which the cell number change is -32%. Also, under setting [2], the AC50 was 29.1 µM [falling, single point]. Moreover, the AC50 under setting [1] is 29.1 µM [falling, single point].

Broadly, the AC50 is the concentration at which the activity in the assay is half-maximal. A higher AC50 goes with activity only at high concentration.
